Experimental data reported in paper PMC12431657, “Discovery and mechanistic insights of dibenzoylmethane as a broad spectrum inhibitor of coronavirus” (PLOS Pathogens, 2025).
Where a name gives a salt, the structure may show the parent alone. Read-outs that look alike come from different tables or passages of the source. The campaign covered roughly 3,300 compounds. About 95 (3%) showed an effect of 50% or more. Some of the results follow.

Tested on: HCoV-229E
Design: species or system Huh-7; HTS, protection from HCoV-229E induced cell death, luminescent cell viability (CellCounting-Lite 2.0), inhibition rate
Conditions: 24 h post infection, 1 h compound pre-incubation, 10 µM, inhibitor

Row | SMILES | 229E Inhibition rate [%] | 229E Inhibition rate (229E Inhibition rate, 24 h) [%]
1 | C[C@H]1O[C@@H](O[C@H]2CC[C@]3(C)[C@H]4C=C[C@]56OC[C@@]7(CCC(C)(C)C[C@H]75)[C@@H](O)C[C@@]6(C)[C@]4(C)CC[C@H]3C2(C)C)[C@H](O)[C@@H](O[C@@H]2O[C@H](CO)[C@@H](O)[C@H](O)[C@H]2O)[C@H]1O [Saikosaponin E] | 11.2 | –
2 | C[C@@H]1O[C@@H](O[C@H]2[C@H](O)[C@@H](O)[C@H](O[C@H]3CC[C@]4(C)[C@H]5CC=C6[C@@H]7CC(C)(C)CC[C@]7(CO)[C@@H](O)C[C@@]6(C)[C@]5(C)CC[C@H]4C3(C)C)O[C@@H]2CO[C@@H]2O[C@H](CO)[C@@H](O)[C@H](O)[C@H]2O)[C@H](O)[C@H](O)[C@H]1O [Saikosaponin F] | 31.2 | –
3 | O=c1[nH]c2ccccc2o1 [2-Benzoxazolinone] | 9.3 | –
4 | CC(=O)NCCCC(=O)O [4-Acetamidobutanoic acid] | 16.3 | –
5 | CC(C)=CCC[C@](C)(O[C@@H]1O[C@H](CO[C@@H]2O[C@H](CO)[C@@H](O)[C@H](O)[C@H]2O)[C@@H](O)[C@H](O)[C@H]1O)[C@H]1CC[C@]2(C)[C@@H]1[C@H](O)C[C@@H]1[C@@]3(C)CC[C@H](O[C@@H]4O[C@H](CO)[C@@H](O)[C@H](O)[C@H]4O)C(C)(C)[C@@H]3CC[C@]12C [Gypenoside XVII] | 9.4 | –
6 | Oc1cccc(O)c1O [Pyrogallol] | 33 | –
7 | COC1=CC(=O)C[C@@H](C)[C@]12Oc1c(Cl)c(OC)cc(OC)c1C2=O [Griseofulvin] | 18.8 | –
8 | CC(C)=CCOc1ccc2ccc(=O)oc2c1 [7-Prenyloxycoumarin] | 10.2 | –
9 | O=C(/C=C/C=C/c1ccccc1)CCc1ccccc1 [Alnustone] | 13.5 | –
10 | COc1ccc(-c2coc3cc(O)cc(O)c3c2=O)cc1 [Biochanin A] | 0 | –
11 | O=C(O)C(=O)O [Oxalic acid dihydrate] | – | 19.5
12 | C[C@H](CCC(=O)NCC(=O)O)[C@H]1CC[C@H]2[C@@H]3[C@H](O)C[C@@H]4C[C@H](O)CC[C@]4(C)[C@H]3CC[C@]12C [Glycochenodeoxycholic acid (sodium salt)] | – | 11.2
13 | C[C@@H]1O[C@@H](O[C@H]2[C@H](O[C@H]3CC[C@@]4(C)[C@@H](CC[C@]5(C)[C@@H]4CC=C4[C@@H]6CC(C)(C)CC[C@]6(C(=O)O[C@@H]6O[C@H](CO[C@@H]7O[C@H](CO)[C@@H](O)[C@H](O)[C@H]7O)[C@@H](O)[C@H](O)[C@H]6O)CC[C@]45C)[C@]3(C)CO)OC[C@H](O)[C@@H]2O)[C@H](O)[C@H](O)[C@H]1O [Dipsacoside B] | 11.1 | –
14 | O=c1cc(-c2ccc(O)cc2)oc2cc(O[C@@H]3O[C@H](CO)[C@@H](O)[C@H](O)[C@H]3O)cc(O)c12 [Apigenin 7-glucoside] | 31.1 | –
15 | COc1ccc2c(c1OC)O[C@H]1c3ccc(O)cc3OC[C@@H]21 [Methylnissolin] | 38.6 | –
16 | Nc1ccc(-c2ccccc2)cn1 [2-Amino-5-phenylpyridine] | 7.2 | –
17 | O=c1ccn([C@H]2C[C@H](O)[C@@H](CO)O2)c(=O)[nH]1 [2'-Deoxyuridine] | 11 | –
18 | O=C(O)[C@H]1CCCCN1 [D-Pipecolinic acid] | 9.3 | –
19 | Nc1nc(=O)c2c([nH]1)NC[C@H](CNc1ccc(C(=O)N[C@@H](CCC(=O)O)C(=O)O)cc1)N2C=O [Levoleucovorin (Calcium)] | 17.5 | –
20 | O=P(O)(O)OC[C@H]1OC(O)(COP(=O)(O)O)[C@@H](O)[C@@H]1O (stereo partly drawn) [Fosfructose (trisodium)] | 8.8 | –
21 | COc1cc(C[C@@H](CO)[C@H](CO)Cc2ccc(O)c(OC)c2)ccc1O [Secoisolariciresinol] | – | 21.7
22 | CC(C)=C[C@@H]1CO[C@]23C[C@]4(CO2)[C@H](CC[C@@H]2[C@@]5(C)CC[C@H](O[C@@H]6OC[C@H](O)[C@H](O[C@@H]7O[C@H](COS(=O)(=O)O)[C@@H](O)[C@H](O)[C@H]7O)[C@H]6O[C@@H]6O[C@@H](CO)[C@H](O)[C@H]6O)C(C)(C)[C@@H]5CC[C@]24C)[C@H]3[C@@]1(C)O [Bacopaside I] | 22.9 | –
23 | CC(C)c1cccc(=O)c(O)c1 [Hinokitiol] | 31 | –
24 | C=CCc1ccc(O)c(-c2cc(CC=C)ccc2O)c1 [Magnolol] | 36.2 | –
25 | CC(C)=CCc1c(O)c(CC=C(C)C)c2oc3c(O)cccc3c(=O)c2c1O [8-Deoxygartanin] | 0 | –
26 | COc1ccc(-c2oc3c(CC=C(C)C)c(O[C@@H]4O[C@H](CO)[C@@H](O)[C@H](O)[C@H]4O)cc(O)c3c(=O)c2O)cc1 [Icariside I] | 7.4 | –
27 | O=C(O)/C=C/C(=O)O [Fumaric acid] | 7.3 | –

Part of the list above, field by field.
O=c1[nH]c2ccccc2o1 [2-Benzoxazolinone]
  229E Inhibition rate [%]: 9.3
Nc1ccc(-c2ccccc2)cn1 [2-Amino-5-phenylpyridine]
  229E Inhibition rate [%]: 7.2

(further entries)

Row | SMILES | 229E Inhibition rate [%] | 229E Inhibition rate (229E Inhibition rate, 24 h) [%]
28 | O=Cc1ccc(O)cc1O [2,4-Dihydroxybenzaldehyde] | 19.8 | –
29 | CCCCOC(=O)c1ccccc1C(=O)OCCCC [Dibutyl phthalate] | 7.2 | –
30 | CC(C)=CCC[C@](C)(O[C@@H]1O[C@H](CO)[C@@H](O)[C@H](O)[C@H]1O)[C@H]1CC[C@]2(C)[C@@H]1[C@H](O)C[C@@H]1[C@@]3(C)CC[C@H](O)C(C)(C)[C@@H]3CC[C@]12C [Ginsenoside C-K] | 9.7 | –
31 | CCCCCCCCCCCCCC(=O)OC[C@H](COP(=O)(O)OCCN)OC(=O)CCCCCCCCCCCCC [(2R)-3-(((2-Aminoethoxy)(hydroxy)phosphoryl)oxy)propane-1,2-diyl ditetradecanoate] | 20 | –
32 | O=C1O[C@H]([C@@H](O)CO)C(O)=C1O [L-Ascorbic acid (sodium salt)] | – | 18.5
33 | C=C(C)C(=O)O[C@H]1[C@@H]2[C@H](C)C(=O)O[C@@H]2C[C@@H](C)[C@@H]2C=CC(=O)[C@]21C [Arnicolide D] | 12.8 | –
34 | NCC(=O)CCC(=O)O [5-Aminolevulinic acid (hydrochloride)] | 10.5 | –
35 | C=C1C(=O)O[C@@H]2[C@H]3C(CO)=CC(=O)C3=C(C)C[C@H](OC(=O)Cc3ccc(O)cc3)[C@@H]12 [Lactupicrin] | 4.8 | –
36 | CC(=O)OC(C)(C)C1CC=C(C)CC1 (stereo not drawn) [α-Terpinyl acetate] | 24.1 | –
37 | C[C@@H]1O[C@@H](OC[C@H]2O[C@@H](OCCc3ccc(O)c(O)c3)[C@H](O)[C@@H](OC(=O)/C=C/c3ccc(O)c(O)c3)[C@@H]2O)[C@H](O)[C@H](O)[C@H]1O [Forsythoside I] | – | 10.1
38 | CCc1ccc(C=O)cc1 [4-Ethylbenzaldehyde] | 11.5 | –
39 | c1c2c(cc3c1OCO3)-c1cc3ccc4c(c3c[n+]1CC2)OCO4 [Coptisine (chloride)] | – | 32
40 | COc1c2ccoc2cc2oc(C)cc(=O)c12 [Visnagin] | 24.9 | –
41 | Oc1cccnc1 [3-Hydroxypyridine] | 4.4 | –
42 | O=c1cc(-c2ccc(O)cc2)oc2cc(O)c([C@@H]3O[C@H](CO)[C@@H](O)[C@H](O)[C@H]3O[C@@H]3OC[C@H](O)[C@H](O)[C@H]3O)c(O)c12 [Isovitexin 2''-O-arabinoside] | 22.1 | –
43 | O=C(/C=C\c1ccc(O)c(O)c1)N[C@@H](Cc1ccc(O)c(O)c1)C(=O)O [Clovamide] | 12.6 | –
44 | O=c1oc2cc(O)ccc2c2ccccc12 [Urolithin B] | 12.4 | –
45 | NCCS [Cysteamine (hydrochloride)] | 17.8 | –
46 | CC1=C(O)C(=O)C(C)O1 (stereo not drawn) [Furaneol] | 17.8 | –
47 | CC1(C)[C@@H](O)CC[C@]2(C)[C@H]3C(=O)C=C4[C@@H]5C[C@@](C)(C(=O)O)CC[C@]5(C)CC[C@@]4(C)[C@]3(C)CC[C@@H]12 [18β-Glycyrrhetinic acid] | 16.6 | –
48 | C[C@]12CCC(=O)C=C1C=C[C@@H]1[C@@H]2CC[C@@]2(C)[C@H]1CC[C@@]21CCC(=O)O1 [Canrenone] | 24.5 | –
49 | COC(=O)[C@H]1[C@H]2C[C@@H]3c4[nH]c5ccccc5c4CCN3C[C@H]2C[C@@H](OC(=O)c2cc(OC)c(OC)c(OC)c2)[C@@H]1OC [deserpidine] | 10.5 | –
50 | Cc1nnc(SCC2=C(C(=O)O)N3C(=O)[C@@H](NC(=O)Cn4cc(Cl)c(=O)c(Cl)c4)[C@H]3SC2)s1 [Cefazedone] | 46.4 | –
51 | C[C@@H]1O[C@@H](OC[C@H]2O[C@@H](Oc3cc(O)c4c(c3)O[C@H](c3ccc(O)c(O)c3)CC4=O)[C@H](O)[C@@H](O)[C@@H]2O)[C@H](O)[C@H](O)[C@H]1O [Eriocitrin] | 11.5 | –
52 | COc1c(-c2ccccc2)oc2ccccc2c1=O [3-Methoxyflavone] | 11.8 | –
53 | C[C@@H]1O[C@@H](O[C@H]2[C@H](O[C@H]3CC[C@@]4(C)[C@@H](CC[C@]5(C)[C@@H]4CC=C4[C@@H]6CC(C)(C)CC[C@]6(C(=O)O[C@@H]6O[C@H](CO[C@@H]7O[C@H](CO)[C@@H](O)[C@H](O)[C@H]7O)[C@@H](O)[C@H](O)[C@H]6O)CC[C@]45C)[C@]3(C)CO)OC[C@H](O)[C@@H]2O)[C@H](O)[C@H](O[C@@H]2O[C@H](CO)[C@@H](O[C@@H]3O[C@H](CO)[C@@H](O)[C@H](O)[C@H]3O)[C@H](O)[C@H]2O)[C@H]1O [Macranthoidin B] | 13.2 | –
54 | O=c1ccc2cc3ccoc3c(O)c2o1 [Xanthotoxol] | 35.1 | –

Excerpt: nos. 11 to 12
Row | SMILES | 229E Inhibition rate [%] | 229E Inhibition rate (229E Inhibition rate, 24 h) [%]
11 | O=C(O)C(=O)O [Oxalic acid dihydrate] | – | 19.5
12 | C[C@H](CCC(=O)NCC(=O)O)[C@H]1CC[C@H]2[C@@H]3[C@H](O)C[C@@H]4C[C@H](O)CC[C@]4(C)[C@H]3CC[C@]12C [Glycochenodeoxycholic acid (sodium salt)] | – | 11.2
